# Reference: PubChem BioAssay AID504834 (National Center for Advancing Translational Sciences (NCATS), 2011)
# Out of some 320,000 compounds screened, about 22,000 (6.9%) were called active. The inconclusive results got no clear call from the source; some entries with a clear call stand among them for comparison. The call rests on the fitted dose curve; in most records, active means well fitted inhibition curve with a large enough effect; inconclusive means small, poorly fitted or top-dose-only effect, or another doubt; inactive means no such curve, though single readings can be large or run the other way. Potencies beside an inconclusive call are fits to weak or partial responses and may not hold up.
# Assay: Primary qHTS for delayed death inhibitors of the malarial parasite plastid, 96 hour incubation
# Conditions: P. falciparum luciferase reporter growth; series mostly up to 28.7 µM
# Procedure, shortened: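 Parasite growth measured via integrated firefly luciferase reporter in P. falciparum. Infected erythrocytes at 2% hematocrit, 0.05% parasitemia final were treated 96 hours at 37 C under 5% CO2, and luminescence was read.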
# Potency means the concentration at half of the fitted maximal effect.
row,Compound,Potency
1,COc1ccc(-c2nc(-c3ccc(NC(=O)c4ccc(Br)o4)cc3)no2)cc1OC,"inconclusive: 7.38 µM [inhibitor, single point]"
2,CC(NC(=O)NC1CCCCC1)C(c1cccs1)N1CCN(c2ccccc2)CC1 (configuration not stated),"inconclusive: 11.7 µM [inhibitor, single point]"
3,O=C(C1CCCN1S(=O)(=O)c1ccc(Cl)cc1)N1CCCCC1 (configuration not stated),inactive
4,CC(=O)c1ccc(N2CCN(S(=O)(=O)c3ccc4c(c3)CC(=O)N4C)CC2)cc1,"inconclusive: 9.28 µM [inhibitor, single point]"
5,Cc1ccc(C(=O)Sc2cccccc2=O)cc1,active: 2.94 µM
6,Cc1nc(CCNC(=O)Cc2ccc(Cl)cc2)cs1,inactive
7,Cc1cccc(OCC(=O)NC2CC(C)(C)NC(C)(C)C2)c1,inactive
8,COc1ccc(S(=O)(=O)N2CCC(C(=O)N3CCCCCC3)CC2)cc1,"inconclusive: 13.1 µM [inhibitor, single point]"
9,CS(=O)(=O)Nc1ccc(C2=NN(C(=O)CCCC(=O)O)C(c3cccs3)C2)cc1 (configuration not stated),active: 1.85 µM
10,CCc1cccc(CC)c1NC(=O)COC(=O)c1cccc(-c2ccc(OC(C)=O)cc2)c1,"inconclusive: 13.1 µM [inhibitor, single point]"
11,Cc1nc2ccc(NS(=O)(=O)c3ccc(F)c(C)c3)cc2[nH]1,inactive
12,COc1ccc(-c2oc(NC(=O)CSc3ncn[nH]3)c(C#N)c2-c2ccc(OC)cc2)cc1,"inconclusive: 18.5 µM [inhibitor, single point]"
13,CC(C)NC(=S)N1CCCN(c2ncccc2[N+](=O)[O-])CC1,active: 9.28 µM
14,Cc1noc(C)c1COc1cccc(C(=O)NCc2ccccc2Cl)c1,"inconclusive: 14.7 µM [inhibitor, partial curve, poor fit]"
15,CN1CC(c2ccc(C#N)cc2)C2(COc3ccccc3C2=O)C12C(=O)Nc1ccccc12 (configuration not stated),"inconclusive: 11.7 µM [inhibitor, single point]"
16,Cn1c2ccccc2c(=O)c2ccc(C#Cc3ccc(N)cc3)cc21,active: 9.28 µM
17,NC(=S)N/N=C/c1ccccc1OCc1cccc(Cl)c1,active: 9.28 µM
18,CCn1c(=O)c2sccc2n(Cc2ccccc2)c1=O,inactive
19,O=C(O)c1cccc(Cn2cc(Cl)cn2)c1,inactive
20,Cc1ccc2c(c1)Sc1c(ccc3ccccc13)N2,"inconclusive: 18.5 µM [inhibitor, single point]"
21,CN1CCOc2ccc(S(=O)(=O)N3CCN(S(=O)(=O)c4c(F)cccc4F)CC3)cc21,"inconclusive: 13.1 µM [activator, partial curve]"
22,CCC/C=N/NC(=O)c1[nH]c2c([N+](=O)[O-])cccc2c1C,"inconclusive: 16.5 µM [inhibitor, single point]"
23,CCN(CC)CCNC(=O)C1CCN(S(=O)(=O)c2c(C)noc2/C=C/c2ccccc2F)CC1,"inconclusive: 18.5 µM [inhibitor, single point]"

row,Compound,Potency
1,COC(=O)c1ccc(COC(=O)CCc2nc(-c3ccccc3)c(-c3ccccc3)o2)cc1,"inconclusive: 18.5 µM [inhibitor, single point]"
2,CCN(CC)CCOC(=O)c1cc(Cl)c(N)cc1OC,inactive
3,CCn1c(SCC(=O)O)nnc1-c1ccc2[nH]c(C)c(C)c2c1,inactive
4,Cc1ccc(S(=O)(=O)NCC(=O)OC(C(=O)c2ccccc2)c2ccccc2)cc1 (configuration not stated),"inconclusive: 10.4 µM [inhibitor, single point]"
5,COc1ccc(N(CC(=O)NCc2cccs2)S(=O)(=O)c2ccc(F)cc2)cc1,"inconclusive: 13.1 µM [inhibitor, partial curve, poor fit]"
6,CN(C(=O)c1ccc(NC(=O)Cc2cccc(NC(=O)C3CCN(C(=O)c4ccccc4)CC3)c2)cc1)C1CCCC1,"inconclusive: 16.5 µM [inhibitor, single point]"
7,O=S1(=O)CCC(NC(=S)N2CCCCCC2)C1 (configuration not stated),"inconclusive: 0.928 µM [inhibitor, full curve, poor fit]"
8,CC(C(=O)NCc1cccs1)N1CCN(S(=O)(=O)c2ccc3c(c2)OCCCO3)CC1 (configuration not stated),"inconclusive: 10.4 µM [inhibitor, single point]"
9,CCOc1ccc(CCNC(=O)CCS(=O)(=O)c2ccc(C)cc2)cc1OCC,inactive
10,CCC(C)NC(=O)c1ccc2nc(-c3ccc(OC)c(OC)c3)c(-c3ccc(OC)c(OC)c3)nc2c1 (configuration not stated),active: 13.1 µM
11,CC(C)Cn1c(SCC(=O)Nc2cc(Cl)c(Cl)cc2Cl)nc(O)cc1=O,"inconclusive: 18.5 µM [inhibitor, partial curve, poor fit]"
12,CCOC(=O)c1c(NC(=O)c2c(N)n(CCCOC)c3nc4ccccc4nc23)sc2c1CCCC2,"inconclusive: 20.8 µM [inhibitor, partial curve, poor fit]"
13,Cc1ccc(C)c(NC(=O)c2cc(-c3ccccc3O)n[nH]2)c1,"inconclusive: 18.5 µM [inhibitor, single point]"
14,CC1(C)O[C@@H]2CC3C4C[C@H](F)C5=CC(=O)C=CC5(C)C4C(O)CC3(C)[C@]2(C(=O)CO)O1 (some centres not stated),"inconclusive: 11.7 µM [inhibitor, single point]"
15,COc1ccccc1N1CCN(C(=O)c2cc(=O)c3c(C)cc(C)cc3o2)CC1,inactive
16,Cc1ccc2[nH]c(O)c(N=NC(=O)c3ccc(NS(=O)(=O)c4cccs4)cc3)c2c1,"inconclusive: 10.4 µM [inhibitor, partial curve]"
17,O=C(Cc1cccs1)Nc1cccc(C(=O)Nc2ccc(C(=O)O)cc2)c1,inactive
18,Cc1sc(NC(=O)C2C3CCC(C3)C2C(=O)O)c(C(N)=O)c1-c1ccc(C(C)(C)C)cc1 (configuration not stated),"inconclusive: 9.28 µM [inhibitor, partial curve, poor fit]"
19,CCc1nn(CC(=O)NCCCN(Cc2ccccc2)C(C)C)c(=O)c2cc3sccc3n12,"inconclusive: 18.5 µM [inhibitor, single point]"
20,Cc1nnc(N2C(=O)C(O)=C(C(=O)c3ccco3)C2c2ccc(F)cc2)s1 (configuration not stated),"inconclusive: 18.5 µM [inhibitor, single point]"
21,COc1ccc(C2/C=C\CN(C(=O)C3CCCC3)CC(=O)N2Cc2ccc(F)cc2)cc1 (configuration not stated),"inconclusive: 10.4 µM [inhibitor, single point]"
22,O=C(NCCCn1ncc2ccccc21)c1cc(COc2c(F)cccc2F)on1,"inconclusive: 3.7 µM [inhibitor, full curve, poor fit]"
23,CCc1nc2ccc(C(=O)N3CCN(CC)CC3)cc2nc1CC,"inconclusive: 13.1 µM [inhibitor, single point]"

# Two records drawn at random from the list so far, as already listed:
row,Compound,Potency
15,COc1ccccc1N1CCN(C(=O)c2cc(=O)c3c(C)cc(C)cc3o2)CC1,inactive
8,CC(C(=O)NCc1cccs1)N1CCN(S(=O)(=O)c2ccc3c(c2)OCCCO3)CC1 (configuration not stated),"inconclusive: 10.4 µM [inhibitor, single point]"

# (cont.)

row,Compound,Potency
1,O=C(O)/C=C/C(=O)Nc1cccc2cccnc12,inactive
2,CC1=C(C(=O)OC2CCCCC2)C(c2cccs2)n2c(nc3ccccc32)N1 (configuration not stated),"inconclusive: 1.85 µM [inhibitor, full curve, poor fit]"
3,COc1ccc(CN(C(=S)Nc2ccccc2)C2CC(=O)N(c3ccc(F)cc3)C2=O)cc1 (configuration not stated),"inconclusive: 16.5 µM [inhibitor, single point]"
4,CCOC(=O)C1=C(c2ccccc2)NC(=O)NC1c1cc(Cl)c(O)c(OC)c1 (configuration not stated),inactive
5,CC(=O)c1ccc(N2CCN(C(=S)Nc3ccc(Oc4ccccc4)cc3)CC2)cc1,"inconclusive: 5.22 µM [inhibitor, partial curve, poor fit]"
6,CO/N=C\c1cc(C(=O)c2ccc(Cl)cc2Cl)cn1C,"inconclusive: 10.4 µM [inhibitor, partial curve, poor fit]"
7,CCN=c1sc(C(=O)OC)cc(=O)n1CC,"inconclusive: 7.38 µM [inhibitor, single point]"
8,COc1ccccc1/C=C1\SC(=O)N(CC(=O)N(C)C2CCS(=O)(=O)C2)C1=O (configuration not stated),inactive
9,COc1cc(-n2c(=O)c3ccccc3n(CC(=O)OCc3ccccc3)c2=O)cc(OC)c1OC,active: 9.28 µM
10,CN(C)C(=O)c1cc(Cl)ccc1Sc1cc(Cl)ccc1Cl,inactive
11,CN(C)C(=Nc1ccccc1)P(=S)(N(C)C)N(C)C,inactive
12,CN(C)S(=O)(=O)c1ccc(NC(=O)CSc2ncnc3ccccc23)cc1,"inconclusive: 11.7 µM [inhibitor, partial curve, poor fit]"
13,COc1ccc(C(=O)NCCS(=O)(=O)N2CCC3(CC2)OCCO3)cc1,inactive
14,CCc1ccccc1N(CC(=O)N1CCc2ccccc2C1)S(C)(=O)=O,"inconclusive: 18.5 µM [inhibitor, single point]"
15,CCN(CC)C(=O)c1c2c(nc3ccccc13)-c1ccccc1CC2,"inconclusive: 6.57 µM [inhibitor, partial curve, poor fit]"
16,Oc1ccccc1N1CCN(c2ncnc3sc(-c4ccccc4)cc23)CC1,"inconclusive: 11.7 µM [inhibitor, single point]"
17,CCNC(=O)C1CC(=O)N(Cc2ccc(F)cc2)C(=Nc2ccc(OC)cc2)S1 (configuration not stated),"inconclusive: 16.5 µM [inhibitor, single point]"
18,Cc1ccc(C(=O)NNC(=O)c2cc(C)nc3ccccc23)cc1,inactive
19,Cc1ccccc1-c1nc(CS(=O)(=O)CC(=O)NCCCN2C(C)CCCC2C)c(C)o1 (configuration not stated),"inconclusive: 1.85 µM [inhibitor, partial curve, poor fit]"
20,C=C(C)C1CC=C(C)/C(=N/NC(=O)COc2cccc(C)c2)C1 (configuration not stated),"inconclusive: 14.7 µM [inhibitor, single point]"
21,Cc1ccc(-c2nnc(-c3ccc(NC(=O)c4cccs4)cc3)o2)cc1,"inconclusive: 1.17 µM [inhibitor, partial curve, poor fit]"

# Structures shown so far that contain a nitro group on carbon (two):
row,Compound,Potency
13,CC(C)NC(=S)N1CCCN(c2ncccc2[N+](=O)[O-])CC1,active: 9.28 µM
22,CCC/C=N/NC(=O)c1[nH]c2c([N+](=O)[O-])cccc2c1C,"inconclusive: 16.5 µM [inhibitor, single point]"
